Assay results reported in paper PMC7450052.
Results are given in words; binding and its absence hold for the method and conditions named. In cells and extracts the contact can be indirect. Some results given as binding are weak or reduced against the parent protein; the word gives no strength.

By UniProt entry, the sequences of proteins in these tests, tags left out.
UniProt Q15796: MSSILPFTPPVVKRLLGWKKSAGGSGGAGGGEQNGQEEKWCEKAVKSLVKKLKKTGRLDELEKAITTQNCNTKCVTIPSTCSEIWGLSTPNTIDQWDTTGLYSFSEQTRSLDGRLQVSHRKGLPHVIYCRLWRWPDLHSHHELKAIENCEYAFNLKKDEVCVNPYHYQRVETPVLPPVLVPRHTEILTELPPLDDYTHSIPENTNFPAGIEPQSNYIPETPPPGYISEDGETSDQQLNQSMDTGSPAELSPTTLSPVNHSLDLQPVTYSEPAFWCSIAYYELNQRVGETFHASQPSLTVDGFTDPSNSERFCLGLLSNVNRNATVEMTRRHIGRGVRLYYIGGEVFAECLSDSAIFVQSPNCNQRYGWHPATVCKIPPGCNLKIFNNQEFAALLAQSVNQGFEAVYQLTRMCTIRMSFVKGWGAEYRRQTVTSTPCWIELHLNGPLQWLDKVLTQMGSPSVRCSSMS
UniProt P84022: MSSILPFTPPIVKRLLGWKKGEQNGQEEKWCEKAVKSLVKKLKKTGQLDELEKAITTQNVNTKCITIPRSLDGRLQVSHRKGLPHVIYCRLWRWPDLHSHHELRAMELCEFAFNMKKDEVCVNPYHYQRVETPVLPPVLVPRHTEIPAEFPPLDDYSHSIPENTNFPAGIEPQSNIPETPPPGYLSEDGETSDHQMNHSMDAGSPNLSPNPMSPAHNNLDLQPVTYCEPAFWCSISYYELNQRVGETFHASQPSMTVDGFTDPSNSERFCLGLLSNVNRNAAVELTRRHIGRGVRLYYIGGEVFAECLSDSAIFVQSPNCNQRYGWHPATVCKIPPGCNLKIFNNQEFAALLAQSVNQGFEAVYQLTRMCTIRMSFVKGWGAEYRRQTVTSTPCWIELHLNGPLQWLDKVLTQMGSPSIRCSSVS
UniProt Q13485: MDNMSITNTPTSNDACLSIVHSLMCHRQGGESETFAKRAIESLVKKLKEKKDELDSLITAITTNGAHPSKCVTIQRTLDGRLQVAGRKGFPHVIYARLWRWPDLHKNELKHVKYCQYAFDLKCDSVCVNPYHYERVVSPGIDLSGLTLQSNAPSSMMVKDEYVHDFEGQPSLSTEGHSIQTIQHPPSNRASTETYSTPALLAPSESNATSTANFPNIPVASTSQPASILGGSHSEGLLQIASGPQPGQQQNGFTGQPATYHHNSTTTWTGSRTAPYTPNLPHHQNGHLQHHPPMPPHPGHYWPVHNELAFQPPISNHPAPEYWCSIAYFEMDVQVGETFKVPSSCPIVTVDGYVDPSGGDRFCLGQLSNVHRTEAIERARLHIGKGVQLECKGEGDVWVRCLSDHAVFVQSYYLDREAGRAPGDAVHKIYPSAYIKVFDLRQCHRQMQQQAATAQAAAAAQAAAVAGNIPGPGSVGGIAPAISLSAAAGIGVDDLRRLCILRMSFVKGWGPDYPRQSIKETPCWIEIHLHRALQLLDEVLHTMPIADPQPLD
UniProt P51608: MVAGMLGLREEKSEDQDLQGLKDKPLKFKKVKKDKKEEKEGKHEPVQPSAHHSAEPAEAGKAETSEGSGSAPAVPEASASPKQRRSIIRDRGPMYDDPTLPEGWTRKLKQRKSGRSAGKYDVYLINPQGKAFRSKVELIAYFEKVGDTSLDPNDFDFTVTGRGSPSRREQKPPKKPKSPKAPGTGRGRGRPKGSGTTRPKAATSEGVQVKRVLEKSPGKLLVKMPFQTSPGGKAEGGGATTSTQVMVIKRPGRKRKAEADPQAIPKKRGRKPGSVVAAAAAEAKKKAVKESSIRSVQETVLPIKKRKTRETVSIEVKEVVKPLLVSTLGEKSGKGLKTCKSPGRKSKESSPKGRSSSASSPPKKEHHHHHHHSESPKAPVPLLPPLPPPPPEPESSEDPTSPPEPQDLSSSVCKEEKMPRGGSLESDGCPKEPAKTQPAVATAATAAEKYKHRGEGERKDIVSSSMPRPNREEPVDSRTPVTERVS

Tests used:
Experiment in all cases: co-IP; 293T cell lysate in co-IP buffer (10 mM HEPES pH 8.0, 300 mM NaCl, 0.1 mM EDTA, 20% glycerol, 0.2% NP-40, protease and phosphatase inhibitors); pre-cleared; IP with the indicated first antibodies at 4 °C overnight; Protein A/G beads; western blotting
[1] = biological target: Smad2 (human (in 293T cells; endogenous or transfected not stated)) (UniProt Q15796)
[2] = biological target: Smad3 (human (in 293T cells; endogenous or transfected not stated)) (UniProt P84022)
[3] = biological target: Smad4 (human (in 293T cells; endogenous or transfected not stated)) (UniProt Q13485)

binding [1]: binds
binding [2]: binds
binding [3]: binds
Substance: Methyl-CpG-binding protein 2 (from UniProt P51608 1-486)
